Measured values reported in article PMC5518878.
Results are given in words; binding and its absence hold for the method and conditions named. For part of these data: In cells and extracts the contact can be indirect. Some results given as binding are weak or reduced against the parent protein; the word gives no strength.

The chains behind the UniProt entries cited, without tags or fusion partners. Where a name states a change or a piece, a line headed by the entry shows the natural chain unless it says otherwise. Residues count along the entry.
UniProt P28222: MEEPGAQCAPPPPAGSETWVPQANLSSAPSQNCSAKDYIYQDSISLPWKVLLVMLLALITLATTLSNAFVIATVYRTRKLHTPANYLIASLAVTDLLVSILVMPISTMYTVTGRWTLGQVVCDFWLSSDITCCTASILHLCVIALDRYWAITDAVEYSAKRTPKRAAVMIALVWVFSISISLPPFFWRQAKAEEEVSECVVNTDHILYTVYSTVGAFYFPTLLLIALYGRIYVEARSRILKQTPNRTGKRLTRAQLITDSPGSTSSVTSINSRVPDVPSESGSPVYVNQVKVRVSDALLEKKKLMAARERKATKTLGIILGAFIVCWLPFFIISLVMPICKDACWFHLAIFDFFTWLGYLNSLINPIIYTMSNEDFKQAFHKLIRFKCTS
UniProt Q03431, residues 27-593: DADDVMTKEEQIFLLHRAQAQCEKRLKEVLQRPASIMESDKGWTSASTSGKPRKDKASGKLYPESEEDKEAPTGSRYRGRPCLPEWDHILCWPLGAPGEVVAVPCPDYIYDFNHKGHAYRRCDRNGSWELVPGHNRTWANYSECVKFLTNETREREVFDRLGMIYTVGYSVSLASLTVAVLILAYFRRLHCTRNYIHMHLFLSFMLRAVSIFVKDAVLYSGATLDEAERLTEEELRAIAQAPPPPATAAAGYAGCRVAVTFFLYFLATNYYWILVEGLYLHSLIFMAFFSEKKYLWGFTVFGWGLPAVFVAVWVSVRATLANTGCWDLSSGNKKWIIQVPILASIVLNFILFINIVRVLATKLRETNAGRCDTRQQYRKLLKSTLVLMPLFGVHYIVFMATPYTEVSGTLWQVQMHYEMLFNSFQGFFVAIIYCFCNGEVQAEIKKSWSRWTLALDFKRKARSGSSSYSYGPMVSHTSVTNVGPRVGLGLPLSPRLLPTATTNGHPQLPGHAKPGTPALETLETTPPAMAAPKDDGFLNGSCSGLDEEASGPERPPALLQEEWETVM
UniProt P21146: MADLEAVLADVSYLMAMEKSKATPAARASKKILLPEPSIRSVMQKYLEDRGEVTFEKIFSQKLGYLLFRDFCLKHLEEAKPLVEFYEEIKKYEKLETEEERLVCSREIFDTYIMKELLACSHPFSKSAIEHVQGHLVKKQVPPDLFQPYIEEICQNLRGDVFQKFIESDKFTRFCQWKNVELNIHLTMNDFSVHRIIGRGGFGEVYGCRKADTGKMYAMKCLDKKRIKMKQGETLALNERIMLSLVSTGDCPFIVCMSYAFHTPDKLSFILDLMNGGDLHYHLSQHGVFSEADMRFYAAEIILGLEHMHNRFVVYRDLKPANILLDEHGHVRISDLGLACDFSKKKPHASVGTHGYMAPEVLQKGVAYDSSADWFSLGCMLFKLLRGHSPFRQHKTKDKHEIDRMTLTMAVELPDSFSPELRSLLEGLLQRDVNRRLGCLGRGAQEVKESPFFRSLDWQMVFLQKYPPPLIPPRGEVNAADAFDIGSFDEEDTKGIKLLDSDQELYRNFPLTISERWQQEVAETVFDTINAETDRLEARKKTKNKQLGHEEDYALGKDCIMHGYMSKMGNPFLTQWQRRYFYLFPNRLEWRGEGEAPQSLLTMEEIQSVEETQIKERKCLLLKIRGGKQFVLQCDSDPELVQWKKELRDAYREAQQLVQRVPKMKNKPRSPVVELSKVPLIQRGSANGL
UniProt P10523: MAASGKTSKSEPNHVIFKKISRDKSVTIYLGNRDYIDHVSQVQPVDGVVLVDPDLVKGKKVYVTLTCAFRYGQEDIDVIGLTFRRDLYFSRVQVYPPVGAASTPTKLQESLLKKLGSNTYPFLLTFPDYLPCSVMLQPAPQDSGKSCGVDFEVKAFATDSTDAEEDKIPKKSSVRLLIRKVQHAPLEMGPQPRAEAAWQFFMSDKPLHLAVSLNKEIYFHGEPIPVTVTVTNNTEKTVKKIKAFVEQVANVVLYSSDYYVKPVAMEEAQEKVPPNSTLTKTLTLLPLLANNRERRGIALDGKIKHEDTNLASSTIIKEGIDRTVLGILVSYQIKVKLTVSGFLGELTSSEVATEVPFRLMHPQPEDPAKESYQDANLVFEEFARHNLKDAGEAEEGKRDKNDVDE
UniProt P34947: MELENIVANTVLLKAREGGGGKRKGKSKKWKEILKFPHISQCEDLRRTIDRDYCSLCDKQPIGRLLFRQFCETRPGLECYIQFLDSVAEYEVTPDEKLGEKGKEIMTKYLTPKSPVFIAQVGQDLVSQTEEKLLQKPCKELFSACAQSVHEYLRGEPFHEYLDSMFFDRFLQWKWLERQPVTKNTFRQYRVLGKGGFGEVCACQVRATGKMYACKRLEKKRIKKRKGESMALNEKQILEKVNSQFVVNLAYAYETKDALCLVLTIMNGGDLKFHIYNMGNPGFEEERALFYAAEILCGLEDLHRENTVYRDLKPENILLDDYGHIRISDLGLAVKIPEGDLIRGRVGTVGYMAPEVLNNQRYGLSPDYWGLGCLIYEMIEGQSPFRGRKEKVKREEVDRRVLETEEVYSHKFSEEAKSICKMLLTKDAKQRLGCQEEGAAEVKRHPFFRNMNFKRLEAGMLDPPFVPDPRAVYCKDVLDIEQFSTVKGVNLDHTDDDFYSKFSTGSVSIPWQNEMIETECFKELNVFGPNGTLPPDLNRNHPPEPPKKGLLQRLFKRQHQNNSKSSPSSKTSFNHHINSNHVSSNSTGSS

Experiments:
[1] = molecular target: β2-adrenergic receptor fused to a TEV cleavage site and tTA (human) (UniProt P07550); assay: Tango assay (TEV protease proximity reporter); HTL cells co-transfected with receptor-TEV cleavage site-tTA and GRK-TEV protease fusions; luciferase reporter; vehicle or ligand overnight (ATR 10 μM for rhodopsin; paroxetine; DHE 0.1 μM, GR 127935 1 μM; SX 1 μM, ICI 118 551 1 μM); DNA amounts adjusted for similar expression
[2] = molecular target: serotonin receptor 5-HT1B fused to a TEV cleavage site and tTA (human) (UniProt P28222); assay: as above
[3] = molecular target: parathyroid hormone receptor (PTH1R) fused to a TEV cleavage site and tTA (human) (UniProt Q03431); assay: as above
[4] = molecular target: H8-MBP-Rho (4M), purified (human) (UniProt P08100); assay: AlphaScreen or HTRF; biotinylated WT arrestin and His8-tagged 4M Rho, without GRK1 or with GRK1 but without ATP; both purified
[5] = molecular target: H8-MBP-Rho (4M), purified (human) (UniProt P08100); assay: AlphaScreen or HTRF; His8-tagged Rho on nickel-chelated acceptor beads, biotinylated GRK on streptavidin donor beads; 40 nM of each protein; 50 mM MOPS-Na pH 7.4, 50 mM NaF, 50 mM CHAPS, 0.01% DDM, 0.1 mg/ml BSA; also with paroxetine; both purified

Substance | binding [1] | binding [2] | binding [3] | binding [4] | binding [5]
GRK2 (1-184)-TEV protease fusion (from UniProt P21146 1-184) (domain or fragment) | binds | binds | binds | – | –
GRK2 (28-184)-TEV protease fusion (from UniProt P21146 28-184) (domain or fragment) | binds | binds | binds | – | –
Arrestin-biotin-MBP (human wild-type visual arrestin), purified (from UniProt P10523 1-405) | – | – | – | binds weakly | –
GRK5, purified, of the AlphaScreen assay (from UniProt P34947 1-590) (enzyme) | – | – | – | – | binds
bovine GRK2 fused to the N-terminus of TEV protease (from UniProt P21146 1-689) (enzyme) | – | – | binds | – | –
